Experimental findings from patent US9248089B2 (GRF (WUHAN) BIOTECHNOLOGY INC., priority 2011, dated 2016) are described below.

This data set can be described thus: general procedure: Fmoc solid-phase peptide synthesis; Rink-amide resin. Conditions: whole synthesis.

For the substance Ac-E(OMe)E(OMe)MQRR-NH2, the “purity (crude or final not stated)” value runs as follows: (HPLC method A) “about 98.8%”; (HPLC method B) “about 91.6%”.
On to “Ac-Glu(OMe)-Glu(OMe)-Met-Gln-Arg(Boc)2-Arg(Boc)2-NH2”, for which, under “HPLC method C”, the “purity (crude or final not stated)” value was “about 97.1%”.
